In patent US20140121233A1, “Synthesis and Characterization of Second Generation Benzofuranone Ring Substituted Noscapine Analogs” (GEORGIA STATE UNIVERSITY RESEARCH FOUNDATION, INC., priority 2011, published 2014):
Some entries share one result that the patent states for a list of compounds. For some assays here: At least one compound was matched to its structure with a doubt left.

Experiments:
Type in all cases: cell-based
[1] = system: PC-3 cells; test: Apoptosis in PC-3 cells, immunoblot analysis
[2] = system: normal human dermal fibroblasts (HDFs); test: Cell proliferation in normal human dermal fibroblasts; conditions: concentrations as high as 100 μM
[3] = system: MDA-MB-231 cells; test: Cell-cycle analysis by flow cytometry; conditions: 25 μM, 12 and 24 h
Method: Flow-cytometric evaluation of the cell-cycle status was performed as described previously. Control and drug treated cells were centrifuged, washed with ice-cold PBS, and fixed in 70% ethanol. Tubes containing the cell pellets were stored at 4° C. for at least 24 h. Cells were then centrifuged at 1000 g for 10 min and the supernatant was discarded. The pellets were washed twice with 5 ml of PBS and then stained with 0.5 ml of propidium iodide (0.1% in 0.6% Triton-X in PBS) and 0.5 ml of RNase A (2 mg/ml) for 45 min in dark. Samples were then analyzed on a BD FACSCanto II flow-cytometer (BD Biosciences, Sparks, Md.).
To gain further insights into the precise mechanisms responsible for inhibition of cellular proliferation, we next examined the effect of benzofuranone ring substituted analogs on cell cycle distribution profiles of breast cancer MDA-MB-231 cells. The effect of compounds 3-7 on mitotic index (percent G2/M cells) and apoptotic index (percent sub-G1 cells) as a function of time in MDA-MB-231 cells was studied using fluorescence activated cell sorting (FACS) analysis. All 5 compounds were used at 25 μM concentration over 48 h of treatment.
Although staining of DNA with propidium iodide is extremely useful to determine the percent cell population in various cell-cycle phases, it has its limitations. […]

[4] = system: caspase-3 and caspase-7 in PC-3 cells; test: Caspase 3/7 activity assay; conditions: 25 μM

Compound	apoptotic cell death [1]	survivin expression ([1]; immunoblot)	inhibition of cell proliferation / viability of normal human fibroblasts [2]	G2/M population up to 24 h [3]	caspase-3 activity [4]	cleavage of PARP ([1]; immunoblot)
COc1ccc2c(c1OC(C)=O)C(=O)O[C@@H]2[C@H]1c2c(cc3c(c2OC)OCO3)CCN1C [Compound 3, (S)-5-methoxy-1-(R)-4-methoxy-6-methyl-5,6,7,8-tetrahydro-[1,3]dioxolo[4,5-g]isoquinolin-5-yl)-3-oxo-1,3-dihydroisobenzofuran-4-yl acetate]	induced apoptotic cell death	decreased expression	–	–	–	–
COc1ccc2c(c1OC(=O)c1ccccc1)C(=O)O[C@@H]2[C@H]1c2c(cc3c(c2OC)OCO3)CCN1C [Compound 4, (S)-5-methoxy-1-(R)-4-methoxy-6-methyl-5,6,7,8-tetrahydro-[1,3]dioxolo[4,5-g]isoquinolin-5-yl)-3-oxo-1,3-dihydroisobenzofuran-4-yl benzoate]	induced apoptotic cell death	decreased expression	–	–	–	–
CCNC(=O)Oc1c(OC)ccc2c1C(=O)O[C@@H]2[C@H]1c2c(cc3c(c2OC)OCO3)CCN1C [Compound 5]	induced apoptotic cell death	decreased expression	–	–	–	–
COc1ccc2c(c1OC(=O)Nc1ccccc1)C(=O)O[C@@H]2[C@H]1c2c(cc3c(c2OC)OCO3)CCN1C [Compound 6, (S)-5-methoxy-1-0)-4-methoxy-6-methyl-5,6,7,8-tetrahydro-[1,3]dioxolo[4,5-g]isoquinolin-5-yl)-3-oxo-1,3-dihydroisobenzofuran-4-yl phenylcarbamate]	induced apoptotic cell death	decreased expression	–	–	–	–
COc1ccc2c(c1OC(=O)NCc1ccccc1)C(=O)O[C@@H]2[C@H]1c2c(cc3c(c2OC)OCO3)CCN1C [Compound 7, (S)-5-methoxy-1-((R)-4-methoxy-6-methyl-5,6,7,8-tetrahydro-[1,3]dioxolo[4,5-g]isoquinolin-5-yl)-3-oxo-1,3-dihydroisobenzofuran-4-yl benzylcarbamate]	induced apoptotic cell death	decreased expression	did not inhibit cell proliferation	significant accumulation of cells in G2/M phase	enhanced caspase-3 activity	cleavage of PARP
